Results on 1 molecule are retold here after publication PMC5443798, “Functional characterization of the meiosis-specific DNA double-strand break inducing factor SPO-11 from C. elegans”.

These are yes or no findings as the source states them, for the method shown.

The target in assay [1] is C. elegans SPO-11 (C. elegans) (UniProt Q22236). In words: AUC; sedimentation velocity, SPO-11 9.2 μM, T buffer supplemented with 300 mM KCl, 4 °C, 50,000 rpm, Sedfit; both purified.
Assay [2] shares this target. In words: SEC; Superdex 75 10/300 GL, T buffer supplemented with 300 mM KCl, calibrated with size standards; both purified.
Assay [3] has the same target. In words: AUC; sedimentation equilibrium, SPO-11 7.6 μM and 15.7 μM, T buffer supplemented with 300 mM KCl, 4 °C, 11,000, 13,200 and 23,000 rpm, single ideal species model; both purified.

B1: C. elegans SPO-11 (protein, UniProt Q22236 1-425)
chain: MYEYSFNPNIDHEPGSVESQQSTIYSDSDDSDDSFLDDEVIPPKEQAMRKIEFALADIKRQMDNKEKSLTLRISTSKSHFCLRYTAKRKGKLDRDLHCLHQVYDLLENDKRSTKRELYYEHKAVYGNQKYLDSSIKSICELLNESRANLNILSCGRGIIRGAITFLVENVGVIDARVQEVLITDALLFSNIISEADFILVVEKDTTFQKLMDENFQAMFPRGILATSKGYPDIATRNVLKMLSEKRKFPIYGLFDADPHGIEIYLTYKYGPTKEFAEGRGAFVPTIEWIGLFPTDFHRFTIDQSQCLPLVRTDFVKIEKMIPRSIQLGEIVVTRELDWMIQNKFKMELESINMCGQEYMARFLIAPRVMSIEKEIPIQPETIINEYHEDSQCSLSTDDDREAKDDDYIDSDAEEKFQNMIDNDSD
Turning to B1, the binding result is “no binding (tested: 9.2 μM)” in assay [1], “no binding” in assay [2] and “no binding (tested: 15.7 μM)” in assay [3].
